PubChem BioAssay AID1259254 | NCATS, 2017

- Purpose: 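Gene knock-downs that lead to re-replication, shown by excess G2 DNA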 (primary screen)
- Cells: human HCT116 colorectal cancer cells
- Knock-down reagent: single siRNA against human genes
- Timing: 3 days
- Measured: 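Nuclei stained with Hoechst and imaged; cell-cycle phase assigned by DNA content; G2 share scaled per plate, non-targeting siRNA 0%, GMNN siRNA 100%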
- Direction: G2 robust z-score and G2 cells, % of GMNN control: higher = more G2 cells, more excess DNA replication
- Rule for the call: 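Active siRNAs have a G2 robust z of 5 or more median absolute deviations over the median, which in these data means about 38% or higher of GMNN control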
The whole screen tested about 59,000 reagents; shown is a random part of them. About 1,550 of all reagents (2.6%) count as active. 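G2 share is only a proxy for re-replication; each gene was hit by three separate siRNAs, and active genes were retested.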 Reagents against one gene are numbered here. Not all columns of the deposit are shown. The record does not give: the amount of reagent.

| target | siRNA no. | G2 robust z-score | G2 cells, % of GMNN control | outcome |
| --- | --- | --- | --- | --- |
| ASCC2 (GeneID 84164) | 1 | 2.18 | 18.3 | inactive |
| ASCC2 (GeneID 84164) | 2 | 0.0257 | 3.15 | inactive |
| ASCC2 (GeneID 84164) | 3 | 0.00897 | 3.03 | inactive |
| ZBTB46 (GeneID 140685) | 1 | -0.586 | -1.15 | inactive |
| ZBTB46 (GeneID 140685) | 2 | -0.0308 | 2.75 | inactive |
| ZBTB46 (GeneID 140685) | 3 | -0.0765 | 2.43 | inactive |
| ID3 (GeneID 3399) | 1 | 1.66 | 14.7 | inactive |
| ID3 (GeneID 3399) | 2 | -0.515 | -0.659 | inactive |
| ID3 (GeneID 3399) | 3 | 0.0795 | 3.53 | inactive |
| ERH (GeneID 2079) | 1 | 0.506 | 6.52 | inactive |
| ERH (GeneID 2079) | 2 | 4.34 | 33.5 | inactive |
| ERH (GeneID 2079) | 3 | 1.54 | 13.8 | inactive |
| RAG1 (GeneID 5896) | 1 | 0.367 | 5.55 | inactive |
| RAG1 (GeneID 5896) | 2 | -0.167 | 1.79 | inactive |
| RAG1 (GeneID 5896) | 3 | 2.36 | 19.6 | inactive |
| DNAH7 (GeneID 56171) | 1 | -1.08 | -4.65 | inactive |
| DNAH7 (GeneID 56171) | 2 | -0.41 | 0.0819 | inactive |
| DNAH7 (GeneID 56171) | 3 | -0.882 | -3.24 | inactive |
| OPA3 (GeneID 80207) | 1 | 0.301 | 5.08 | inactive |
| OPA3 (GeneID 80207) | 2 | 5.68 | 42.9 | active |
| OPA3 (GeneID 80207) | 3 | 3.4 | 26.9 | inactive |
| DNAI1 (GeneID 27019) | 1 | 1.56 | 13.9 | inactive |
| DNAI1 (GeneID 27019) | 2 | 0.623 | 7.35 | inactive |
| DNAI1 (GeneID 27019) | 3 | -0.816 | -2.78 | inactive |

Next part; the last 2 above are carried over.
| target | siRNA no. | G2 robust z-score | G2 cells, % of GMNN control | outcome |
| --- | --- | --- | --- | --- |
| DNAI1 (GeneID 27019) | 2 | 0.623 | 7.35 | inactive |
| DNAI1 (GeneID 27019) | 3 | -0.816 | -2.78 | inactive |
| PLEKHN1 (GeneID 84069) | 1 | -1.39 | -6.85 | inactive |
| PLEKHN1 (GeneID 84069) | 2 | 0.81 | 8.66 | inactive |
| PLEKHN1 (GeneID 84069) | 3 | 0.139 | 3.94 | inactive |
| OR2T27 (GeneID 403239) | 1 | 0.525 | 6.66 | inactive |
| OR2T27 (GeneID 403239) | 2 | 0.56 | 6.9 | inactive |
| OR2T27 (GeneID 403239) | 3 | -1.11 | -4.81 | inactive |
| SSH3 (GeneID 54961) | 1 | 0.635 | 7.44 | inactive |
| SSH3 (GeneID 54961) | 2 | 1.62 | 14.4 | inactive |
| SSH3 (GeneID 54961) | 3 | 2.08 | 17.6 | inactive |
| LOC646853 (GeneID 646853) | 1 | -0.47 | -0.341 | inactive |
| LOC646853 (GeneID 646853) | 2 | 0.574 | 7.01 | inactive |
| LOC646853 (GeneID 646853) | 3 | -1.01 | -4.15 | inactive |
| CLINT1 (GeneID 9685) | 1 | -0.741 | -2.24 | inactive |
| CLINT1 (GeneID 9685) | 2 | -1.09 | -4.73 | inactive |
| CLINT1 (GeneID 9685) | 3 | -0.479 | -0.4 | inactive |
| CBY1 (GeneID 25776) | 1 | 0.572 | 6.99 | inactive |
| CBY1 (GeneID 25776) | 2 | -0.699 | -1.95 | inactive |
| CBY1 (GeneID 25776) | 3 | -0.787 | -2.57 | inactive |
| CRB1 (GeneID 23418) | 1 | -0.432 | -0.0695 | inactive |
| CRB1 (GeneID 23418) | 2 | -0.822 | -2.82 | inactive |
| CRB1 (GeneID 23418) | 3 | -0.504 | -0.578 | inactive |
| FOXN4 (GeneID 121643) | 1 | -0.181 | 1.69 | inactive |
| FOXN4 (GeneID 121643) | 2 | 1.56 | 14 | inactive |
| FOXN4 (GeneID 121643) | 3 | 1.59 | 14.2 | inactive |
